No constants are given. Whether binding was seen depends on the method and setting. In cells and extracts the contact can be indirect. Some entries that bind do so weakly or less than the wild type. Tags and fused reporters may be left off the sequences shown.
Target: Fam20A wild type, Flag-tagged or V5-tagged, expressed in U2OS cells (human) (UniProt Q96MK3)
Test: co-IP; Flag- and V5-tagged proteins co-expressed in U2OS cells, co-immunoprecipitated, immunoblotting

B1: Fam20A wild type, Flag-tagged or V5-tagged, expressed in U2OS cells (protein, UniProt Q96MK3 34-541)
chain: QLRPRERPRGCPCTGRASSLARDSAAAASDPGTIVHNFSRTEPRTEPAGGSHSGSSSKLQALFAHPLYNVPEEPPLLGAEDSLLASQEALRYYRRKVARWNRRHKMYREQMNLTSLDPPLQLRLEASWVQFHLGINRHGLYSRSSPVVSKLLQDMRHFPTISADYSQDEKALLGACDCTQIVKPSGVHLKLVLRFSDFGKAMFKPMRQQRDEETPVDFFYFIDFQRHNAEIAAFHLDRILDFRRVPPTVGRIVNVTKEILEVTKNEILQSVFFVSPASNVCFFAKCPYMCKTEYAVCGNPHLLEGSLSAFLPSLNLAPRLSVPNPWIRSYTLAGKEEWEVNPLYCDTVKQIYPYNNSQRLLNVIDMAIFDFLIGNMDRHHYEMFTKFGDDGFLIHLDNARGFGRHSHDEISILSPLSQCCMIKKKTLLHLQLLAQADYRLSDVMRESLLEDQLSPVLTEPHLLALDRRLQTILRTVEGCIVAHGQQSVIVDGPVEQLAPDSGQANLTS
- binding: binds

From article PMC5413348, “Structure of Fam20A reveals a pseudokinase featuring a unique disulfide pattern and inverted ATP-binding” (eLife, 2017)
